We go through two sequences from paper PMC10704377.

By UniProt entry, the sequences of proteins in these tests, tags left out. Where a name states a change or a piece, a line headed by the entry shows the natural chain unless it says otherwise.
UniProt Q9GZX7: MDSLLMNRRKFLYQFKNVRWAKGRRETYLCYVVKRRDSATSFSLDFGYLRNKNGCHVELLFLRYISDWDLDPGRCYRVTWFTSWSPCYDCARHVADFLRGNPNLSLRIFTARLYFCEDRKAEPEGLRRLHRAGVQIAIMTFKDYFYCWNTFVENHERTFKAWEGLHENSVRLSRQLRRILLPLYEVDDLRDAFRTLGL

The target of the data set is GST-AID (activation-induced cytidine deaminase) (UniProt Q9GZX7). Briefly: EMSA. Conditions: 100 mM KCl, 0.5 and 1 ug AID, complex stays in well; Oligos heat-denatured and slowly cooled in 100 mM KCl; AID 0.5-1 ug, 4 °C, 1 h; 4% native PAGE with 100 mM KCl in gel and buffer, room temperature; recombinant protein; protein details: GST (pGEX-5X-3p); label: 5'-32P; folded or branched DNA.

Construct, isoform or probe ends are uncertain for at least one entry.

As for “ACTGGGGCTGGGGTGGGGGGTAATCCAGAACTGGATCGGGGT [KD16]”, the binding result is reported as “binds”. Next, “TCTGGGTTTTGGGGGGCTGGGGGTTGCTTTGCGGTGGGCA [KD18]”: “binds”.
